Measured values from paper PMC3597514.
Positions count from the first letter of the chain named. No constants are given. Whether binding was seen depends on the method and setting. For some assays here: Binding can be weak; no strength is given. For some assays here: Sequences can lack the tags named with a protein. For some assays here: In cells and extracts the contact can be indirect.

Key:
[1] = target: T1, full-length N (yeast two-hybrid fusion) (not stated ("Nicotiana", "tobacco")) (UniProt Q40392); assay: two-hybrid; yeast two-hybrid library screen with N; 14 clones found
T1 sequence: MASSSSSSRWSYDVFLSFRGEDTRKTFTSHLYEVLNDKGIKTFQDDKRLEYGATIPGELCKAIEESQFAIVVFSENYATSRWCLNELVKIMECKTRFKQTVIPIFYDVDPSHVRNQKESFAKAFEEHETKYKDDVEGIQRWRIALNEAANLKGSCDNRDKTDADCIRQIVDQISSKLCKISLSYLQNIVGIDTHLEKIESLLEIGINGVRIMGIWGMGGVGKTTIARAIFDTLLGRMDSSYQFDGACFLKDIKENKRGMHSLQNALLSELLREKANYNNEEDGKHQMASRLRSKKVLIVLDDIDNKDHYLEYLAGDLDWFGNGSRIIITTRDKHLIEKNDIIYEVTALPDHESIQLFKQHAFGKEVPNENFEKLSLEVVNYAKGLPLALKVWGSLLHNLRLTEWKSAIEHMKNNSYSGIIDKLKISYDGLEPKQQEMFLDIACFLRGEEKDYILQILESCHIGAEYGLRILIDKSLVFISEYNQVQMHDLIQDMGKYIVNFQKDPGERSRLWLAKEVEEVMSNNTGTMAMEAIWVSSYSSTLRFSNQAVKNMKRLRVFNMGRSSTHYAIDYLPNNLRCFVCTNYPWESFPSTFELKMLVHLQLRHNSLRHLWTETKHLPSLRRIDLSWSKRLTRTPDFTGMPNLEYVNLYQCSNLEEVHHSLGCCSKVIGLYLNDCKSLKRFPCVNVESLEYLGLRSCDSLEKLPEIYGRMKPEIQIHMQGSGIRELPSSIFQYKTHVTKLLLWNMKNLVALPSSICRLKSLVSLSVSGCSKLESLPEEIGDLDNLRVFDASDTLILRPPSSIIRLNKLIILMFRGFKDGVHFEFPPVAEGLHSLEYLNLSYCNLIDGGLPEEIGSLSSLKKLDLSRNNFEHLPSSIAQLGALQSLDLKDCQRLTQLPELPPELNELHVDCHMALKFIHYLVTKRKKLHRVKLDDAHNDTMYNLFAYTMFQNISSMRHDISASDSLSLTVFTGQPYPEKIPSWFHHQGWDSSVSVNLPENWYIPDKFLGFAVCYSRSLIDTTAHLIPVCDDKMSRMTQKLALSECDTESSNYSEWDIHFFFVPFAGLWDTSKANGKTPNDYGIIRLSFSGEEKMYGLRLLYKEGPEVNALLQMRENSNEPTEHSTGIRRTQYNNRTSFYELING

[2] = target: T2, N TIR domain (yeast two-hybrid fusion) (not stated ("Nicotiana", "tobacco")) (UniProt Q40392); assay: two-hybrid; directed yeast two-hybrid; growth of yeast on media lacking leucine
T2 sequence: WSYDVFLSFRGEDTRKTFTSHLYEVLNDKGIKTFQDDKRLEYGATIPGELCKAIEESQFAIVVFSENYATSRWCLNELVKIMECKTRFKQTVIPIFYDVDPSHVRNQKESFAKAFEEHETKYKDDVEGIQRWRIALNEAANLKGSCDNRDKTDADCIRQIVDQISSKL

[3] = target: T1, full-length N (yeast two-hybrid fusion) (not stated ("Nicotiana", "tobacco")); assay: as above
[4] = target: avrRps4-HA (Pseudomonas syringae); assay: co-IP; N. benthamiana leaves co-expressing N and the HA-tagged effector; anti-HA agarose beads; extraction buffer with 150 mM NaCl; four washes with 300 mM NaCl and 0.2% Triton; blot for Myc
[5] = target: rNbSPL6-HA (N. benthamiana); assay: co-IP; N. benthamiana leaves co-expressing N and the HA-tagged protein, tCFP-p50-U1 infiltrated 8 or 12 h later; anti-HA agarose beads, 2 h at 4°C; buffer with 100 mM NaCl, 20 mM Tris pH 7.5, 0.1% Triton; washes with 200 mM NaCl; blot for Myc
[6] = target: NbSPL6-Yc (N. benthamiana); assay: split reporter; BiFC (split citrine) in N. benthamiana leaf cells in the presence of the full-length 126 kD TMV-U1 replicase (p126-U1-Cerulean)
[7] = target: NbSPL6-Yc (N. benthamiana); assay: split reporter; BiFC (split citrine) in N. benthamiana leaf cells, tCFP-p50-U1 infiltrated 8-12 h after N and NbSPL6; confocal microscopy 44 to 50 h after infiltration

Molecule: NbSPL6 (yeast two-hybrid fusion) (N. benthamiana)
- binding [1]: binds
- binding [2]: binds
- binding [3]: binds

B1: gN-6xMyc (receptor, UniProt Q40392 1-1144)
chain: T1 sequence
- binding [4]: no binding
- binding [5]: binds

B2: gN-Yn (receptor, UniProt Q40392 1-1144)
chain: T1 sequence
- binding [6]: binds
- binding [7]: binds

B3: gN^GK221-222AA-6xMyc (receptor, UniProt Q40392 1-1144)
chain: T1 sequence with G221A, K222A
- binding [4]: no binding
